For assay [1], the target named is T1, ELF3-7Q (variant in Col) (Arabidopsis thaliana) (UniProt O82804).
T1 sequence: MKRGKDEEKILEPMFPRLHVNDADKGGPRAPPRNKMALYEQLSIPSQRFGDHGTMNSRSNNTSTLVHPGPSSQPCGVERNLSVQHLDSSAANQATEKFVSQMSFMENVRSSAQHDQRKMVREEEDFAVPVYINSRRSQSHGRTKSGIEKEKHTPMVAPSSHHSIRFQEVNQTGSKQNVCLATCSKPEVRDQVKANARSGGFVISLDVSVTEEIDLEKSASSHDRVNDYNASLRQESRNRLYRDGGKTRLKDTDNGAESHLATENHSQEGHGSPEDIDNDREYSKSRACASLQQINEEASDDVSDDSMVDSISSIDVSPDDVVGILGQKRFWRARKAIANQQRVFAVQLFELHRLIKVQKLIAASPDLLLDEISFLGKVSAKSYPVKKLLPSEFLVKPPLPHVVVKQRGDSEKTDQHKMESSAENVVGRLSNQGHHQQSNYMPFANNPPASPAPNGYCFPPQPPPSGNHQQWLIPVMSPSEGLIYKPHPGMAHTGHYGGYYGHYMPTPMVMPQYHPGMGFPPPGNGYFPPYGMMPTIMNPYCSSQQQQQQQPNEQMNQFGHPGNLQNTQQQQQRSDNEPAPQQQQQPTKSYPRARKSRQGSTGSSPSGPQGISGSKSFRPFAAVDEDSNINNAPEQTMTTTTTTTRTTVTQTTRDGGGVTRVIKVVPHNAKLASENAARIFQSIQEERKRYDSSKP
The assay can be described thus: two-hybrid.

Assay [2] has as its target T2, ELF3-7Q (variant in Col) (Arabidopsis thaliana), O82804.
T2 chain: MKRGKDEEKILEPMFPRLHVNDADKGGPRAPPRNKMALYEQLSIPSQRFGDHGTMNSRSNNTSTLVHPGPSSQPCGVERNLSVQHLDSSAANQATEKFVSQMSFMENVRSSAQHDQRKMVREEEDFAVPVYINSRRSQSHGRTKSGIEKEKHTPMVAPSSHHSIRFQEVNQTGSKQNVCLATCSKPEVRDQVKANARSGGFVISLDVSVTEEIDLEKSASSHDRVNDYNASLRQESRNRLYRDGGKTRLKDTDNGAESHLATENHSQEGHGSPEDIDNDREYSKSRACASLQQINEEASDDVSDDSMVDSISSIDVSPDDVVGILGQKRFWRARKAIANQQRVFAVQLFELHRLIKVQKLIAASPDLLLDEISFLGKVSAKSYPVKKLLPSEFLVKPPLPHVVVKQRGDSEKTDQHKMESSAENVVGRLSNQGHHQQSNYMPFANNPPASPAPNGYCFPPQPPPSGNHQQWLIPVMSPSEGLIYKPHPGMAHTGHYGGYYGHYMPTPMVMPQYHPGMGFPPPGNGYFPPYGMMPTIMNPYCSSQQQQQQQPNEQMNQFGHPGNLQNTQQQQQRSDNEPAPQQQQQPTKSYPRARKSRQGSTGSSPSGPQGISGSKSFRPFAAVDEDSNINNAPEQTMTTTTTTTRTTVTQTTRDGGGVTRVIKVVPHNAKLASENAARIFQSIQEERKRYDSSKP
The assay can be described thus: two-hybrid. To be noted: remark: other sources report otherwise.

Results are given in words; binding and its absence hold for the method and conditions named.

B1: LSH9 (LIGHT-… SHORT HYPOCOTYLS 9), Col variant (protein, UniProt Q9SN52 1-191)
chain: MSSDRHTPTKDPPDHPSSSSNHHKQPLPPQPQQPLSRYESQKRRDWNTFVQYLKSQNPPLMMSQFDYTHVLSFLRYLDQFGKTKVHHQACVFFGQPDPPGPCTCPLKQAWGSLDALIGRLRAAYEEHGGGSPDTNPFANGSIRVHLREVRESQAKARGIPYRKKKRRKTKNEVVVVKKDVANSSTPNQSFT
With B1, in assay [1], the binding result is “no binding”.

B2: Phytochrome Interacting Factor 4, Q8W2F3 1-430 (protein)
chain: MEHQGWSFEENYSLSTNRRSIRPQDELVELLWRDGQVVLQSQTHREQTQTQKQDHHEEALRSSTFLEDQETVSWIQYPPDEDPFEPDDFSSHFFSTMDPLQRPTSETVKPKSSPEPPQVMVKPKACPDPPPQVMPPPKFRLTNSSSGIRETEMEQYSVTTVGPSHCGSNPSQNDLDVSMSHDRSKNIEEKLNPNASSSSGGSSGCSFGKDIKEMASGRCITTDRKRKRINHTDESVSLSDAIGNKSNQRSGSNRRSRAAEVHNLSERRRRDRINERMKALQELIPHCSKTDKASILDEAIDYLKSLQLQLQVMWMGSGMAAAAASAPMMFPGVQPQQFIRQIQSPVQLPRFPVMDQSAIQNNPGLVCQNPVQNQIISDRFARYIGGFPHMQAATQMQPMEMLRFSSPAGQQSQQPSSVPTKTTDGSRLDH
With B2, the binding result in assay [2] is given as “no binding”.

Source of the values: paper doi:10.1101/061564.
